This note sets out measurements from PMC7933818.

These are yes or no findings as the source states them, for the method shown. Binding seen in cells or lysates may run through a third protein. Binding calls can cover weak binding; strength is not graded here.

This experiment concerns the target NF90 (Jurkat) (human (endogenous in Jurkat)). As to the kind of experiment: co-IP; Jurkat cells treated with PMA/ionomycin (P/I); RIPA lysate with nuclease, sonicated; antibody and protein A/G agarose overnight at 4°C; washed three times with TBST; Western blot. (In general: In western blotting, separated proteins are transferred to a membrane and probed.)

B1: NFATc1 (protein, UniProt O95644 1-943)
chain: MPSTSFPVPSKFPLGPAAAVFGRGETLGPAPRAGGTMKSAEEEHYGYASSNVSPALPLPTAHSTLPAPCHNLQTSTPGIIPPADHPSGYGAALDGGPAGYFLSSGHTRPDGAPALESPRIEITSCLGLYHNNNQFFHDVEVEDVLPSSKRSPSTATLSLPSLEAYRDPSCLSPASSLSSRSCNSEASSYESNYSYPYASPQTSPWQSPCVSPKTTDPEEGFPRGLGACTLLGSPRHSPSTSPRASVTEESWLGARSSRPASPCNKRKYSLNGRQPPYSPHHSPTPSPHGSPRVSVTDDSWLGNTTQYTSSAIVAAINALTTDSSLDLGDGVPVKSRKTTLEQPPSVALKVEPVGEDLGSPPPPADFAPEDYSSFQHIRKGGFCDQYLAVPQHPYQWAKPKPLSPTSYMSPTLPALDWQLPSHSGPYELRIEVQPKSHHRAHYETEGSRGAVKASAGGHPIVQLHGYLENEPLMLQLFIGTADDRLLRPHAFYQVHRITGKTVSTTSHEAILSNTKVLEIPLLPENSMRAVIDCAGILKLRNSDIELRKGETDIGRKNTRVRLVFRVHVPQPSGRTLSLQVASNPIECSQRSAQELPLVEKQSTDSYPVVGGKKMVLSGHNFLQDSKVIFVEKAPDGHHVWEMEAKTDRDLCKPNSLVVEIPPFRNQRITSPVHVSFYVCNGKRKRSQYQRFTYLPANVPIIKTEPTDDYEPAPTCGPVSQGLSPLPRPYYSQQLAMPPDPSSCLVAGFPPCPQRSTLMPAAPGVSPKLHDLSPAAYTKGVASPGHCHLGLPQPAGEAPAVQDVPRPVATHPGSPGQPPPALLPQQVSAPPSSSCPPGLEHSLCPSSPSPPLPPATQEPTCLQPCSPACPPATGRPQHLPSTVRRDESPTAGPRLLPEVHEDGSPNLAPIPVTVKREPEELDQLYLDDVNEIIRNDLSSTSTHS
Regarding B1, the binding result was “binds”.
